Record: PubChem BioAssay AID1259254 (NCATS, 2017)
Aim: 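Finding genes that stop cells copying their DNA twice in one cycle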 (primary screen). Cells: human HCT116 colorectal cancer cells. Reagent: single siRNA against human genes. Duration: 3 days. Read-out: 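Nuclei stained with Hoechst and imaged; cell-cycle phase assigned by DNA content; G2 share scaled per plate, non-targeting siRNA 0%, GMNN siRNA 100%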. Direction: G2 robust z-score and G2 cells, % of GMNN control: higher = more G2 cells, more excess DNA replication; raw share of cells in G2: higher = larger share of cells with G2 DNA content. Active means: 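Active siRNAs have a G2 robust z of 5 or more median absolute deviations over the median, which in these data means about 38% or higher of GMNN control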.
This is an unselected part of about 59,000 reagents. About 1,550 of all reagents (2.6%) were called active. 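G2 share is only a proxy for re-replication; each gene was hit by three separate siRNAs, and active genes were retested.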 The raw values are shown without normalisation. Reagents against one gene are numbered here. No sequences are given here. Not given: the amount of reagent.

gene symbol	reagent	G2 robust z-score	G2 cells, % of GMNN control	raw share of cells in G2 (%)	Call
ABI2 (GeneID 10152)	1	5.55	42	23	active
ABI2 (GeneID 10152)	2	-0.813	-2.75	2.95	inactive
ABI2 (GeneID 10152)	3	0.962	9.74	9.93	inactive
PDP1 (GeneID 54704)	1	2.38	19.7	11.2	inactive
PDP1 (GeneID 54704)	2	0.0402	3.25	5.28	inactive
PDP1 (GeneID 54704)	3	2.9	23.4	10.5	inactive
CPLX3 (GeneID 594855)	1	-0.852	-3.03	2.27	inactive
CPLX3 (GeneID 594855)	2	1.99	17	8.9	inactive
CPLX3 (GeneID 594855)	3	1.44	13.1	8.69	inactive
PTPN7 (GeneID 5778)	1	0.845	8.91	7.69	inactive
PTPN7 (GeneID 5778)	2	1.28	12	7.91	inactive
PTPN7 (GeneID 5778)	3	-1.34	-6.43	1.56	inactive
PPIP5K2 (GeneID 23262)	1	-0.213	1.47	5.56	inactive
PPIP5K2 (GeneID 23262)	2	0.148	4.01	5.79	inactive
PPIP5K2 (GeneID 23262)	3	-0.828	-2.86	2.1	inactive
EMID1 (GeneID 129080)	1	-0.627	-1.45	2.59	inactive
EMID1 (GeneID 129080)	2	-0.354	0.474	3.33	inactive
EMID1 (GeneID 129080)	3	0.207	4.42	5.08	inactive
ABRA (GeneID 137735)	1	-0.257	1.16	4.61	inactive
ABRA (GeneID 137735)	2	0.3	5.07	4.71	inactive
ABRA (GeneID 137735)	3	-0.228	1.36	3.07	inactive
MTHFD1L (GeneID 25902)	1	0.718	8.02	6.85	inactive
MTHFD1L (GeneID 25902)	2	0.463	6.22	6.03	inactive
MTHFD1L (GeneID 25902)	3	-0.418	0.0291	6.18	inactive
LRRC20 (GeneID 55222)	1	-0.596	-1.23	2.74	inactive
LRRC20 (GeneID 55222)	2	-1.2	-5.47	2.42	inactive
LRRC20 (GeneID 55222)	3	-0.226	1.38	4.71	inactive
ROCK1 (GeneID 6093)	1	-0.0865	2.36	6.39	inactive
ROCK1 (GeneID 6093)	2	-1.47	-7.37	1.43	inactive
ROCK1 (GeneID 6093)	3	-1.12	-4.88	3.76	inactive
SRSF4 (GeneID 6429)	1	0.765	8.35	6.72	inactive
SRSF4 (GeneID 6429)	2	-1.47	-7.38	3.2	inactive
SRSF4 (GeneID 6429)	3	-1.1	-4.74	2.92	inactive
AKR1B10 (GeneID 57016)	1	0.188	4.29	8.31	inactive
AKR1B10 (GeneID 57016)	2	0.463	6.23	6.93	inactive
AKR1B10 (GeneID 57016)	3	0.0727	3.48	5.69	inactive
PLXNB2 (GeneID 23654)	1	-0.465	-0.306	5.49	inactive
PLXNB2 (GeneID 23654)	2	-0.437	-0.107	5.15	inactive
PLXNB2 (GeneID 23654)	3	0.0772	3.51	4.81	inactive
LOC100289470 (GeneID 100289470)	1	-0.886	-3.27	2.81	inactive
LOC100289470 (GeneID 100289470)	2	2.65	21.6	10.5	inactive
LOC100289470 (GeneID 100289470)	3	1.31	12.2	7.61	inactive

10 entries already listed, ordered by “raw share of cells in G2 (%)”, highest first:
gene symbol	reagent	G2 robust z-score	G2 cells, % of GMNN control	raw share of cells in G2 (%)	Call
MTHFD1L (GeneID 25902)	1	0.718	8.02	6.85	inactive
PPIP5K2 (GeneID 23262)	2	0.148	4.01	5.79	inactive
PPIP5K2 (GeneID 23262)	1	-0.213	1.47	5.56	inactive
EMID1 (GeneID 129080)	3	0.207	4.42	5.08	inactive
ABRA (GeneID 137735)	2	0.3	5.07	4.71	inactive
ABRA (GeneID 137735)	1	-0.257	1.16	4.61	inactive
EMID1 (GeneID 129080)	2	-0.354	0.474	3.33	inactive
ABRA (GeneID 137735)	3	-0.228	1.36	3.07	inactive
EMID1 (GeneID 129080)	1	-0.627	-1.45	2.59	inactive
PPIP5K2 (GeneID 23262)	3	-0.828	-2.86	2.1	inactive

Additional reagents follow.
gene symbol	reagent	G2 robust z-score	G2 cells, % of GMNN control	raw share of cells in G2 (%)	Call
SYT1 (GeneID 6857)	1	0.313	5.17	5.51	inactive
SYT1 (GeneID 6857)	2	-0.468	-0.327	4.69	inactive
SYT1 (GeneID 6857)	3	-0.802	-2.67	2.14	inactive
STK16 (GeneID 8576)	1	3.44	27.2	14	inactive
STK16 (GeneID 8576)	2	-0.98	-3.92	3.76	inactive
STK16 (GeneID 8576)	3	-0.46	-0.266	3.6	inactive
ADH1A (GeneID 124)	1	-0.489	-0.473	4.56	inactive
ADH1A (GeneID 124)	2	0.603	7.21	7.64	inactive
ADH1A (GeneID 124)	3	0.245	4.69	5.74	inactive
EFCAB11 (GeneID 90141)	1	-1.06	-4.51	2.17	inactive
EFCAB11 (GeneID 90141)	2	1.23	11.6	6.65	inactive
EFCAB11 (GeneID 90141)	3	2.54	20.8	9.53	inactive
ZNF692 (GeneID 55657)	1	1.18	11.3	11.4	inactive
ZNF692 (GeneID 55657)	2	-0.991	-4	3.01	inactive
ZNF692 (GeneID 55657)	3	-0.0641	2.52	5.38	inactive
AGMO (GeneID 392636)	1	0.211	4.45	5.43	inactive
AGMO (GeneID 392636)	2	1.18	11.3	8	inactive
AGMO (GeneID 392636)	3	1.55	13.9	10.5	inactive
ADAM17 (GeneID 6868)	1	0.305	5.12	7.34	inactive
ADAM17 (GeneID 6868)	2	2.27	19	11.6	inactive
ADAM17 (GeneID 6868)	3	1.94	16.6	10.1	inactive
PPP2R2B (GeneID 5521)	1	5.47	41.5	18.3	active
PPP2R2B (GeneID 5521)	2	0.0678	3.44	5.34	inactive
PPP2R2B (GeneID 5521)	3	-0.438	-0.117	3.46	inactive
DSE (GeneID 29940)	1	-0.351	0.501	4.05	inactive
DSE (GeneID 29940)	2	-0.0912	2.33	5.43	inactive
DSE (GeneID 29940)	3	-0.483	-0.433	3.12	inactive
